Measured values from PMC10077476.
No constants are given. Whether binding was seen depends on the method and setting. For part of these data: Binding can be weak; no strength is given. Sequences can lack the tags named with a protein. For part of these data: Binding seen in cells or lysates may run through a third protein.

Sequences of proteins named here, by UniProt entry; tags and fusion partners are left off. A change or cut given only in a name is not applied to a line headed by its entry.
UniProt Q8K4J6: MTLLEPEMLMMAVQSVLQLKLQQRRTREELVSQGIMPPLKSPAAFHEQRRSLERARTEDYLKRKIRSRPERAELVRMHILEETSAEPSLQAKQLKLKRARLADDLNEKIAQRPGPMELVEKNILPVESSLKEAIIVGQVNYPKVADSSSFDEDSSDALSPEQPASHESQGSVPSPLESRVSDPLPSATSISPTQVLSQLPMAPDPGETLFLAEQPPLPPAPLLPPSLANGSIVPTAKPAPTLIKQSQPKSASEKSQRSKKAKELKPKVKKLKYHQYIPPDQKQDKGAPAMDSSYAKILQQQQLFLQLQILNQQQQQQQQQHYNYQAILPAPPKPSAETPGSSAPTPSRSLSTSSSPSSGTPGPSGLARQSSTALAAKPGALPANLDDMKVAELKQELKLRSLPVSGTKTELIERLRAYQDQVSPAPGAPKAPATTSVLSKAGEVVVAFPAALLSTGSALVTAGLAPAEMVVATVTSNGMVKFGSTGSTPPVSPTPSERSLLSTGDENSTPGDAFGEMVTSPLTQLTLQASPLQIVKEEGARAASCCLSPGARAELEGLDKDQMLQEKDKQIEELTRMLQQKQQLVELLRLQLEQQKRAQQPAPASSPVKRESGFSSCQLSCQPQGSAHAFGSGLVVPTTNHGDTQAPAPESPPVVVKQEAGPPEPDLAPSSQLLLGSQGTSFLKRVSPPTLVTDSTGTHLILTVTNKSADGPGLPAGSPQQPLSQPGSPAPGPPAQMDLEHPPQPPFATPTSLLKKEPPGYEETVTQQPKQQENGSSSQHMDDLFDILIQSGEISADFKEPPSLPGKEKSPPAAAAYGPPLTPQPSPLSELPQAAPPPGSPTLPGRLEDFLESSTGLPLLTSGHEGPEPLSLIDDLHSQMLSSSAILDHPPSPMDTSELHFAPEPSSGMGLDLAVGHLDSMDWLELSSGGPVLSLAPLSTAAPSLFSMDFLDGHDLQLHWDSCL

B1: myc-Prdm6 (COS-7) (protein, UniProt Q3UZD5 1-596)
chain: MLKPGDPGGSAFLKVDPAYLQHWQQLFPHGGGGGGPLKASGAALALGAPQPLQPPPPPPPPPPERAEPPPDGLRPRPASLSSTPAPSSTSASSASSCAAAAAAAALAGLSALPVAQMPVFAPLAAAAVAAEPLPPKDLCLGASAGPGPAKCGGGGGSVGDGRGVPRFRCSAEELDYYLYGQQRMEIIPLNQHTSDPNNRCDMCADNRNGECPMHGPLHSLRRLVGTSSAAAAAPPPELPEWLRDLPREVCLCTSTVPGLAYGICAAQRIQQGTWIGPFQGVLLSPEKVQTGVVRNTQHLWEIYDQDGTLQHFIDGGEPSKSSWMRYIRCARHCGEQNLTVVQYRSNIFYRACIDIPRGTELLVWYNDSYTSFFGIPLQCIAQDENLNVPSTVMEAMCRQDALQPFNKSSKLSPSGQQRSVVFPQTPCSRNFSLLDKSGPMEAGFNQINVKNQRVLASPTSTSQLHSEFSDWHLWKCGQCFKTFTQRILLQMHVCTQNPDRPYQCGHCSQSFSQPSELRNHVVTHSSDRPFKCGYCGRAFAGATTLNNHIRTHTGEKPFKCERCERSFTQATQLSRHQRMPNECKPITESPESIEVD
B2: recombinant GST-PRDM6 protein (protein, UniProt Q3UZD5 1-596)
chain: B1 chain

Key:
[1] = biological target: flag-MRTF-A aa 109–475 (central region) (UniProt Q8K4J6); experiment: co-IP; COS-7 cells transfected with epitope-tagged Prdm6 and MRTF-A constructs; RIPA lysates, anti-myc or anti-flag IP overnight at 4°C, washed in 20 mM Tris HCl pH 7.3, 150 mM NaCl, 10% glycerol, 0.5% Triton X-100; Western blot; in separate experiments cytochalasin D was included
[2] = biological target: flag-MRTF-A aa 480–930 (transaction domain) (UniProt Q8K4J6); experiment: as above
[3] = biological target: flag-MRTF-A aa 109–475 (central region) (UniProt Q8K4J6); experiment: far-Western, overlay or dot blot; flag-tagged MRTF-A variants immunoprecipitated from COS-7 cells, resolved by SDS-PAGE, transferred to nitrocellulose and renatured; incubated with recombinant GST-PRDM6 in blocking buffer (20% goat serum, 3% BSA, in PBS); probed with anti-GST Ab; both purified

Row | Binder | binding [1] | binding [2] | binding [3]
1 | B1 | binds | no binding | –
2 | B2 | – | – | binds
